{"sequences": {"note": "The chains behind the UniProt entries cited, without tags or fusion partners. Where a name states a change or a piece, a line headed by the entry shows the natural chain unless it says otherwise.", "UniProt P18054": "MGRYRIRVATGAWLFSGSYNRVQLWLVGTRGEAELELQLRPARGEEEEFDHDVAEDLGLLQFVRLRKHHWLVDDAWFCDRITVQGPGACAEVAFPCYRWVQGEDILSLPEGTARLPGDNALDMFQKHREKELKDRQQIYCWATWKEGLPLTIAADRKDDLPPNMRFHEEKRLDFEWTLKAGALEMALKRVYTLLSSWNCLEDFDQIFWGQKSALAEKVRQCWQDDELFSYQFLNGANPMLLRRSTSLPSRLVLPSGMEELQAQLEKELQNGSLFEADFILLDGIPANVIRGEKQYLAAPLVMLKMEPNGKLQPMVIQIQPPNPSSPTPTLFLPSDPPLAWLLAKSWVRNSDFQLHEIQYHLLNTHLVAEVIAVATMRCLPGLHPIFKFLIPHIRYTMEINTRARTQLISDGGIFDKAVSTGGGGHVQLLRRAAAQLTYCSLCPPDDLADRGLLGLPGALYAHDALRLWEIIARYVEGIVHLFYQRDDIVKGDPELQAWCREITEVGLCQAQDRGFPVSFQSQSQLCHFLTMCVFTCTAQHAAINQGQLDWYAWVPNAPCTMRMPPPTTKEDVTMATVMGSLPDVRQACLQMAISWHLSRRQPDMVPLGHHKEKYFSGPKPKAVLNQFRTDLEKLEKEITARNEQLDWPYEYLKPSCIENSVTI"}, "source": "PubChem BioAssay AID1671190", "about": "(National Center for Advancing Translational Sciences (NCATS), 2021)", "note": "In all, about 580,000 compounds went through this assay and about 6,100 (1.1%) were called active. The shares of active, inactive and inconclusive entries below differ from those in the screen. Calls follow the shape of the dose curve; as a rule, active = well fitted inhibition curve with a large enough effect; inconclusive = small, poorly fitted or top-dose-only effect, or another doubt; inactive = no such curve, though single readings can be large or run the other way. Potencies beside an inconclusive call are fits to weak or partial responses and may not hold up."}
{"molecular_target": "Polyunsaturated fatty acid lipoxygenase ALOX12 (Homo sapiens) (UniProt P18054)", "experiment": "Primary qHTS assay for inhibitors of human arachidonate 12S-lipoxygenase (ALOX12): Round 2; also: potency is read from the fitted curve at half-maximal effect", "details": "purified 12hLO, xylenol orange hydroperoxide absorbance; series mostly up to 108 µM", "in_short": "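Purified human 12hLO (150 nM final) in 25 mM Hepes, 0.01% Triton X-100, pH 7.0 was preincubated 15 min at room temperature with compound. Then 40 uM arachidonic acid was added, 30 min. Hydroperoxide was read by Fe-XO absorbance ratio 573/405 nm.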"}
{"compound": "COC(=O)C1=C(C)N(Cc2ccc(C(F)(F)F)cc2)C(=NCc2ccc(C(F)(F)F)cc2)NC1c1ccccc1", "note": "(configuration not stated)", "Potency": "inconclusive: 44.7 µM [inhibitor, partial curve, poor fit]"}
{"compound": "COC(=O)c1cccc(NC(=O)NC2CCCN2S(=O)(=O)c2ccc(Cl)cc2)c1", "note": "(configuration not stated)", "Potency": "inconclusive: 44.7 µM [inhibitor, partial curve, poor fit]"}
{"compound": "CC(C(=O)c1ccc(-c2ccccc2)cc1)[n+]1cccc(NC(=O)c2ccccc2)c1", "note": "(configuration not stated)", "Potency": "inconclusive: 20 µM [inhibitor, partial curve, poor fit]"}
{"compound": "Cc1cccc(S(=O)(=O)C(C#N)c2nc3ccccc3nc2N2CC(C)OC(C)C2)c1", "note": "(configuration not stated)", "Potency": "inconclusive: 39.8 µM [inhibitor, partial curve]"}
{"compound": "Cc1ccc(-n2ccn3c(CCC(=O)Nc4ccc(F)c(Cl)c4)nnc3c2=O)cc1C", "Potency": "inactive"}
{"compound": "COc1ccc(OC)c(/C(O)=C/C(=O)C(=O)Nc2ccccc2OC)c1", "Potency": "inactive"}
{"compound": "CC1(C)S[C@@H]2[C@H](NC(=O)C(NC(=O)N3CCNC3=O)c3ccccc3)C(=O)N2[C@H]1C(=O)O", "note": "(some centres not stated)", "Potency": "inconclusive: 4.47 µM [inhibitor, full curve, poor fit]"}
{"compound": "COCCN1C(=O)CS(=O)(=O)C12CCN(C(=O)COc1ccc(Cl)cc1)CC2", "Potency": "inactive"}
{"compound": "CCOc1cccc2c1Oc1nc(-c3cc(OC)ccc3OC)[nH]c(=O)c1C2", "Potency": "inconclusive: 141 µM [inhibitor, single point]"}
{"compound": "COc1ccc2cc1Nc1ccc(cc1)C[C@H](NCc1ccc(C)o1)C(=O)N(C)[C@H](C(=O)NCCC(C)C)C2", "Potency": "inconclusive: 17.8 µM [inhibitor, full curve]"}
{"compound": "CNC(=O)c1cc2cc(OC)ccc2n1CCN(Cc1ccccc1)Cc1ccccc1", "Potency": "inconclusive: 14.1 µM [inhibitor, partial curve, poor fit]"}
{"compound": "CC(=O)c1ccc(NC(=O)CSc2nnc3c(n2)[nH]c2ccccc23)cc1", "Potency": "inactive"}
{"compound": "Cc1ccc(S(=O)(=O)N2CC3(O)CN(C(=O)OC(C)C)N(C(=O)OC(C)C)CC3(OC(=O)Nc3cccs3)C2)cc1", "note": "(configuration not stated)", "Potency": "inconclusive: 35.5 µM [inhibitor, single point]"}
{"compound": "O=C(CSc1ccc2nc(-c3ccccc3)cn2n1)Nc1ccccc1", "Potency": "inactive"}
{"compound": "CC(=O)/C(=C(/O)c1ccccc1)c1nc2ccccc2[nH]1", "Potency": "inactive"}
{"compound": "CCC(C(=O)OCC(=O)c1c(N)n(CC(C)C)c(=O)n(C)c1=O)c1ccccc1", "note": "(configuration not stated)", "Potency": "inactive"}
{"compound": "COc1cccc(Cn2c(=O)c(-c3cn(C)c4ccccc34)nc3cnc(N4CCNCC4)nc32)c1", "Potency": "inconclusive: 10 µM [inhibitor, partial curve, poor fit]"}
